Assay results taken from paper PMC7291019.
Results are given in words; binding and its absence hold for the method and conditions named. Binding seen in cells or lysates may run through a third protein. Some entries that bind do so weakly or less than the wild type.

Chains of the proteins cited; added tags and fusions are not shown.
UniProt P26678: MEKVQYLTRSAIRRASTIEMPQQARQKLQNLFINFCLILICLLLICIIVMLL

Target: RFP-SERCA2a (acceptor-labelled human cardiac sarco/endoplasmic reticulum calcium ATPase, as it stands in the RFP-SERCA2a-LINKER-GFP-PLB fusion biosensor) (human) (UniProt P16615)
Test: FRET or BRET; fluorescence-lifetime (FLT) detected FRET in living HEK293-6E cells in PBS at room temperature, 1536-well plate reader; GFP donor on PLB, RFP acceptor on SERCA2a, both tethered on one chain by a 47-residue linker; donor-only cell line as reference; with DMSO, thapsigargin or Ro …

In the case of “GFP-PLB (donor-labelled human cardiac phospholamban, as it stands in the RFP-SERCA2a-LINKER-GFP-PLB fusion biosensor) (from UniProt P26678 1-52)”, the binding is reported as “binds”.
